# Whole data set: some 33,000 sequences, median “E-score (-0.5 to 0.5)” near -0.0059, cut for the highest 2% near 0.26. The list shows a part of the results.
# Biological target: T1, Cin5 (UniProt P40917)
# T1 sequence: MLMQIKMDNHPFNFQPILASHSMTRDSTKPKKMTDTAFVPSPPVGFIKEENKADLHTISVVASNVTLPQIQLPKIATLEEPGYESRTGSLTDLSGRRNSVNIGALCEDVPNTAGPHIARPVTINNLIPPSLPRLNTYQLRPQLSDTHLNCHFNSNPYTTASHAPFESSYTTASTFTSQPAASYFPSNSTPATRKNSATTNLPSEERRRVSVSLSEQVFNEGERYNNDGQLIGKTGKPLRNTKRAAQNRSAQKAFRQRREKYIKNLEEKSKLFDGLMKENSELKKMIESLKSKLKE
# Experiment: PBM E-score (8-mer binding enrichment) (E-score (-0.5 to 0.5)); higher = stronger / more preferred TF binding
# Details: protein concentration: 100 nM; construct: GST-full length
# Outline: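 The E-score, a modified Wilcoxon-Mann-Whitney statistic, was computed by the Universal PBM Analysis Suite for every ungapped eight-base word pooled with its reverse complement. Scans behind it were normalised with masliner after bound GST-tagged yeast transcription factors were detected with fluorescent anti-GST. The proteins, at about 100-200 nM, had been applied to universal all-10-mer Agilent arrays made double-stranded by primer extension.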
row,Sequence,PBM E-score
1,AGATTCAT,-0.0102
2,AGTTTTTA,-0.12
3,CAGTCGCC,-0.129
4,TGAACCCA,0.0303
5,AATAGGTG,-0.0223
6,ACCCCTAC,0.00351
7,CTTGGACA,-0.116
8,AAAAACAT,0.111
9,AGCCCTAT,-0.146
10,CTTACACC,-0.0748
11,TAGTCCGA,-0.0594
12,GCTCAGCA,-0.0162
13,GACCAAAC,-0.173
14,AAGTATTA,0.0531
15,ACACCCGC,0.127
16,AGAGGAGC,-0.233
17,AACAGTTA,0.099
18,CCGCGAAC,0.0232
19,AATCCATG,0.0693
20,ACGCGCCG,-0.0779
21,AAATTCAT,0.0992
22,ATCGTCCG,0.0229
23,ACTTCATG,0.0471
24,CACCCGTA,-0.0406
25,ACAGCCAC,0.0393

row,Sequence,PBM E-score
1,CACCCTGG,-0.195
2,CCTCATGC,-0.137
3,AGGGCACT,-0.249
4,GCTACGCC,-0.319
5,GAGGGAAA,-0.152
6,ATCTCTTG,-0.0398
7,CTCCCATA,-0.0777
8,ATTGCAGA,0.00865
9,CCGTAACC,0.0324
10,CCCAGACG,-0.0437
11,ACTCTGAG,-0.0227
12,CCCCTTTA,-0.195
13,CGGTCGTC,-0.131
14,ACCATGGT,-0.0835
15,CACGGGAA,-0.0678
16,CCCCCACC,-0.454
17,ATACTCTC,0.0894
18,GAGAACCA,-0.0076
19,ATACCCCC,-0.346
20,CGGGAAAC,0.0271
21,AGGCTCAG,-0.221
22,CCTAGGTA,-0.0942
23,GGCGGAAA,0.088
24,AGGACATA,0.0165
25,GTATCCTA,-0.134

# Taken from above.
# PBM E-score with ATACTCTC is entered as 0.0894
# PBM E-score with CCCCCACC is entered as -0.454

# Later entries

row,Sequence,PBM E-score
1,GACATAAA,0.239
2,GTCCTGTA,-0.101
3,CACAGACG,-0.00259
4,TACATGAA,0.0703
5,CACCTCGG,-0.0365
6,ACTGGACT,-0.093
7,GGAACTCC,0.0855
8,AGTAGCTC,-0.109
9,ATATGCCG,0.141
10,GTAAATAA,0.189
11,TAGTTTCA,0.231
12,GACAGTCA,-0.165
13,GCCCGTCC,-0.242
14,ACTTCTAA,-0.123
15,ACGGTACG,-0.0614
16,TACTTGCA,0.141
17,AGGTTCTG,-0.145
18,CCTACATA,-0.0197
19,GGGTCTGA,-0.0937
20,AGTCGAAA,0.0984
21,GTGGCATA,0.0881
22,TGCCAGAA,-0.0023
23,GAGAAGAA,0.0328
24,AGCGATTG,-0.0501
25,ACTGAGAG,-0.196

row,Sequence,PBM E-score
1,GTACCCGA,-0.233
2,ACACTGCT,-0.102
3,CTCTCCGA,-0.256
4,GATACACA,0.0946
5,CATTTTGG,0.0271
6,CTAAATCA,0.00062
7,AGAAATAG,0.109
8,GTATTCAA,0.16
9,ACGGAGCG,0.0709
10,AACAGAAT,-0.00288
11,ACTTTAAT,0.158
12,ATGCAGTA,0.166
13,GAAAGAGA,0.0604
14,CTTCTAGA,-0.146
15,ACCGTCCC,-0.149
16,ATCCGCTG,0.0586
17,AACTTCCG,0.0891
18,AAGATAGC,-0.0127
19,AAGCTTTG,0.0433
20,ATGTGAGC,-0.0106
21,TCAGGTCA,0.0576
22,ACTCGTGA,-0.124
23,AACGTTCG,-0.0146
24,CGTCCCGC,-0.00601
25,CACCTGCG,-0.0584

row,Sequence,PBM E-score
1,ATATTGGC,0.0862
2,AAGTGCGT,-0.0503
3,CTCGGCAG,-0.0503
4,CCGGGTGA,0.00652
5,AAGCACCT,0.0923
6,GCATAAAA,0.0577
7,TCCAATAA,0.132
8,AACGTACT,0.105
9,ATAGCCTG,-0.218
10,AAGCCCAG,-0.048
11,AAGGCAAT,0.0678
12,GGTGTTGA,-0.0286
13,CGCCCCGC,-0.023
14,ACATAGAC,0.0249
15,ACACATCC,0.0576
16,GACTGCAA,-0.0854
17,AAAGGATT,-0.00637
18,CAACCACA,0.1
19,CTGACAAA,0.186
20,AAAGTGCT,-0.0393
21,AAAAGGCA,0.0609
22,AGCACCGA,0.0341
23,ATACTGGA,0.153
24,GCACTCAA,-0.167
25,ACCCCGGA,-0.00022

row,Sequence,PBM E-score
1,TGTACACA,0.0885
2,ATTAAGAC,-0.0447
3,CCTGATTC,0.0656
4,CGCATAAA,0.113
5,ATATCACG,0.173
6,GGTTGAAC,0.0825
7,ACCTGGGC,-0.282
8,AAGAATCA,0.253
9,CATTAACG,0.0883
10,GCGTGTCC,0.005
11,ACACATGT,0.0736
12,ATCCGCTA,0.13
13,CATTCAGA,-0.052
14,GCACGTGA,-0.0905
15,AACTTAAC,0.231
16,ACTACTTG,0.168
17,ATTTCTAC,-0.0323
18,ATACCGTG,0.00629
19,GAAGCACA,0.101
20,CAATCCCG,0.259
21,CCCCGGGG,-0.33
22,ATGGACAA,0.141
23,AGGGTATG,0.0272
24,AGGCAGGC,-0.168
25,CCAATTCC,0.13

row,Sequence,PBM E-score
1,ATTATCGC,0.245
2,CGGAAAAA,0.128
3,AACTGTGG,0.158
4,GAGAGGAA,0.0247
5,CGCGTCAG,-0.0883
6,ATACTCAT,0.0642
7,ACCAGAAC,0.147
8,AGAAAGGA,-0.116
9,ATTTAACA,0.209
10,AATCAAAT,0.176
11,AAGACGAC,0.14
12,AGCCAACC,0.18
13,TGAGATCA,-0.0191
14,CTTCTTCC,-0.107
15,ACCGGGGA,-0.226
16,ACACTGCA,-0.118
17,ACGTTTGG,-0.202
18,AAGGCATC,-0.242
19,CTAAAGCA,0.0792
20,ATCAGGTG,5e-05
21,ATGTATCG,0.232
22,GTGTAAAC,-0.0602

# Nothing new here: an excerpt of the list.
row,Sequence,PBM E-score
23,ATACTGGA,0.153
24,GCACTCAA,-0.167
25,ACCCCGGA,-0.00022
1,TGTACACA,0.0885
2,ATTAAGAC,-0.0447
3,CCTGATTC,0.0656
